Measurements as given in patent US9526791B2 (Taiho Pharmaceutical Co., Ltd., priority 2012, dated 2016).
Where a sequence shows no end group, the ends are not given.

Tests used:
Conditions in all cases: whole synthesis
[1] = general procedure: Fmoc solid-phase peptide synthesis; H-His(Trt)-Trt(2-Cl)-resin; HBTU/HOBt, DIEA
[2] = general procedure: Fmoc solid-phase peptide synthesis; Fmoc-Leu-HMP resin; HBTU/HOBt, DIEA
[3] = general procedure: Fmoc solid-phase peptide synthesis; Fmoc-Ala-HMP resin; HBTU/HOBt, DIEA

With HGHGGGGGGGGGAHALLAHAALAH the crude mass [1] was 182.9 mg and the crude yield ([1]; theoretical value 222.0 mg from resin) was 82.4%.
HGHGLALLAHALLAHAAAAL gave a crude mass [2] of 111.8 mg and a crude yield ([2]; theoretical value 200.7 mg from resin) of 55.7%.
For HHGGLLLLHHHAAAAALLLAAAAA, the crude mass [3] was 233.4 mg and the crude yield ([3]; theoretical value 242.0 mg from resin) was 96.4%.
